Results published in article PMC8558480.
No constants are given. Whether binding was seen depends on the method and setting. In cells and extracts the contact can be indirect. Some entries that bind do so weakly or less than the wild type. Tags and fused reporters may be left off the sequences shown.

Protein sequences, listed by entry. Tags and fused reporters are not part of them.
UniProt Q6ZQ08: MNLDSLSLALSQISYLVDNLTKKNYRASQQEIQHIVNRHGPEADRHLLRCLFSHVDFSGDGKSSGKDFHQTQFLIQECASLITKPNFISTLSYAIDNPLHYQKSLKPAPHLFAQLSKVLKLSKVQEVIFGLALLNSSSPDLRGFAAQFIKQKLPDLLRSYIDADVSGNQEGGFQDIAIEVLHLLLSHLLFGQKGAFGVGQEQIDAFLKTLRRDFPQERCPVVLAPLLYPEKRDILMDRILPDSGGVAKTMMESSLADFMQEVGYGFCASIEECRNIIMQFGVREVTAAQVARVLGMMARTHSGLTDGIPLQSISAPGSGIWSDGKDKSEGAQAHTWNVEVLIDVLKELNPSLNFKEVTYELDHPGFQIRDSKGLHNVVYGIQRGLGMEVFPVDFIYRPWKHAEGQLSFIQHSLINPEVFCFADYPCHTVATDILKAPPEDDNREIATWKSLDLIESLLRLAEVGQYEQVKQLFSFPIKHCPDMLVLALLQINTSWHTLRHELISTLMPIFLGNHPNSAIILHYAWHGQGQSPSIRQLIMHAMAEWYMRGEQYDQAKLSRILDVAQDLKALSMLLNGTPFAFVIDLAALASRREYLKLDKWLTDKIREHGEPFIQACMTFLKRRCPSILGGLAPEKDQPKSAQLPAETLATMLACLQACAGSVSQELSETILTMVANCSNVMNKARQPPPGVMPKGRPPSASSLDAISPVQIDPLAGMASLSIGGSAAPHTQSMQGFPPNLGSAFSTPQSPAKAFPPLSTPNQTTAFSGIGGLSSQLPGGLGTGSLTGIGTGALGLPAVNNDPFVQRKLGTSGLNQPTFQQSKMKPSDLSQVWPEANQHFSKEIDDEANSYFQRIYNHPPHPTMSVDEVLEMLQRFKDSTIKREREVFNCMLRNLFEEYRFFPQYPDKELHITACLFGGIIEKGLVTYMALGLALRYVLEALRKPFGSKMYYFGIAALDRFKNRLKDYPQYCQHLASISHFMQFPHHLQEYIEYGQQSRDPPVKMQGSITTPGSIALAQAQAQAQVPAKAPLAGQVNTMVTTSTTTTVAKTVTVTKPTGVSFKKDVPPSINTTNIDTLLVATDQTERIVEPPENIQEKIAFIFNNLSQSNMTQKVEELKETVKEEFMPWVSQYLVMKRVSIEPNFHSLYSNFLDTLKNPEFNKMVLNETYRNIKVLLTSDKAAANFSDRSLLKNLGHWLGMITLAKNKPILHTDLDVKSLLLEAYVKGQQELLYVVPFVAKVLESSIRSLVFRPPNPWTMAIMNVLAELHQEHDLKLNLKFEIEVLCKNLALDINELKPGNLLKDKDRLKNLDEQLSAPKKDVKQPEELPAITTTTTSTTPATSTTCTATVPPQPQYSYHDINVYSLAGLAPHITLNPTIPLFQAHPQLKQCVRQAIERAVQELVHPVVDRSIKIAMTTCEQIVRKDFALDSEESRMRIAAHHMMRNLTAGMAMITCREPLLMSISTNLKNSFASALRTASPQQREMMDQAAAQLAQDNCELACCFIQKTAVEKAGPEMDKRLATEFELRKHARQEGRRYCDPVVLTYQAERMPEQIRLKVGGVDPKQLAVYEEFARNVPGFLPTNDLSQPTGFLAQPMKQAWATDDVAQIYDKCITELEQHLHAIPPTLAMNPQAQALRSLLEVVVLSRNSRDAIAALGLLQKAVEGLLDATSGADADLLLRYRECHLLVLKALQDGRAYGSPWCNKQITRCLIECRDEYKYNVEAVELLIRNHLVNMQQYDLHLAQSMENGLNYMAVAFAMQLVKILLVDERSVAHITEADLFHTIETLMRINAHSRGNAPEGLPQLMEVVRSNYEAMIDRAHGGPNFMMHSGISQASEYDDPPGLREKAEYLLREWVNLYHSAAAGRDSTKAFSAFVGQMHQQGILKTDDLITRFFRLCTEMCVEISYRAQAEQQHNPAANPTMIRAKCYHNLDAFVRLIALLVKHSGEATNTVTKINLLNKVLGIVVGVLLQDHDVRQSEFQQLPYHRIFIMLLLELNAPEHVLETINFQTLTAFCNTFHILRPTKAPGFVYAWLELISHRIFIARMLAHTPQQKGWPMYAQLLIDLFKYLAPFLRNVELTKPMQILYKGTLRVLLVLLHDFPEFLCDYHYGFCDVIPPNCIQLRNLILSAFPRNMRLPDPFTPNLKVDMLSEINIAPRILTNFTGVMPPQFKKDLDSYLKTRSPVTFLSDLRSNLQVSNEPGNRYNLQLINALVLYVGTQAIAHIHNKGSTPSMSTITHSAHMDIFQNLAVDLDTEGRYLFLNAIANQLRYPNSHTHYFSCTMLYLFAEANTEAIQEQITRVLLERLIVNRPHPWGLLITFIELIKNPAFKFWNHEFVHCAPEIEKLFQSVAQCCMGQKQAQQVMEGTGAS

Molecular target: T1, GST-tagged Tex13a (mouse) (UniProt A2AFS9)
T1 sequence: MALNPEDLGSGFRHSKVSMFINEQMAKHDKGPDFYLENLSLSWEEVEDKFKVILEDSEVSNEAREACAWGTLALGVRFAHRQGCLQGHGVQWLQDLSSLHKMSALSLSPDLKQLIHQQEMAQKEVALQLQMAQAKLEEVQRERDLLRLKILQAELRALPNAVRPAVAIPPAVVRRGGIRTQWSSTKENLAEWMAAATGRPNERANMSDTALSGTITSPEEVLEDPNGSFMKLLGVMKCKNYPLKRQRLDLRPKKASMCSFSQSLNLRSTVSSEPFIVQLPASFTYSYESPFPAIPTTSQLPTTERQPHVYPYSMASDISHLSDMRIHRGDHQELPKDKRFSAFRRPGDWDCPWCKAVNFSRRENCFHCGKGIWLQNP
Experiment: pull-down; GST-tagged Tex13a beads incubated for 3 h on ice with mouse testis homogenates in mild lysis buffer (50 mM Tris pH 7.4, 150 mM NaCl, 0.1% Triton X-100); anti-Cnot1 Western blot; only the target purified

binding: binds
Substance: Endogenous Cnot1 of mouse testes (from UniProt Q6ZQ08 1-2375)
